Test results from the supplement of paper PMC10849652.
Some of the results follow.

Sequences of proteins named here, by UniProt entry; tags and fusion partners are left off. A change or cut given only in a name is not applied to a line headed by its entry.
UniProt Q7Z3B4: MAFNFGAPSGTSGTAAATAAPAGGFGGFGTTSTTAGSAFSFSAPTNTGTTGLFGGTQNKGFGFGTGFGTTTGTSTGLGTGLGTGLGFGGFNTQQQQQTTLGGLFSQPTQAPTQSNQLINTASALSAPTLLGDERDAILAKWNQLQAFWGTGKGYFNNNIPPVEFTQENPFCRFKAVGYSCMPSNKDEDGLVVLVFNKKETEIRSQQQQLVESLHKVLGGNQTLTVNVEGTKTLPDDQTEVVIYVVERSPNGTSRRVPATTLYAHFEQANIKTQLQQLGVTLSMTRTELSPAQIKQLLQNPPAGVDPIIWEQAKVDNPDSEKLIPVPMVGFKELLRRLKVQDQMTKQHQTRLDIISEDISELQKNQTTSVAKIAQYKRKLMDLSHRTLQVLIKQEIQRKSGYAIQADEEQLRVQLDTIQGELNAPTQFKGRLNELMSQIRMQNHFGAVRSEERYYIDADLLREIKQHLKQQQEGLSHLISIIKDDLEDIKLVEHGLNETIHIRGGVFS
UniProt Q9BW27: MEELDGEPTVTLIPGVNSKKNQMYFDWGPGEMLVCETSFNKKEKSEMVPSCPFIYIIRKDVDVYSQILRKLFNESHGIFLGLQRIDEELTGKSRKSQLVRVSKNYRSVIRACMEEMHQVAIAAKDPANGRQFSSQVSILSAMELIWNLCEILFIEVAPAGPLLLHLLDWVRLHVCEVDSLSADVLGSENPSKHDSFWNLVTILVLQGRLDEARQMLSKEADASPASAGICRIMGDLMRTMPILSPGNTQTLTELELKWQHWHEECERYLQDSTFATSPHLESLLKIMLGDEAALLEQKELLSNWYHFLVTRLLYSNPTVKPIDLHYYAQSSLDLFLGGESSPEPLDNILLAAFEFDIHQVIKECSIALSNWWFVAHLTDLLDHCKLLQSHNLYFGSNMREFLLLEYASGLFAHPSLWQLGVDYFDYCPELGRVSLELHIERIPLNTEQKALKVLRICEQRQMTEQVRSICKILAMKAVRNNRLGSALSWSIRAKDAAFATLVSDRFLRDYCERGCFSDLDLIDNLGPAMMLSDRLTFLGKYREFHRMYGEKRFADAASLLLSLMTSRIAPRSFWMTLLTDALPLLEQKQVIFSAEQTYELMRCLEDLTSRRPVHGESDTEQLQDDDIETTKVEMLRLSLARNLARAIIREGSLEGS
UniProt P43034: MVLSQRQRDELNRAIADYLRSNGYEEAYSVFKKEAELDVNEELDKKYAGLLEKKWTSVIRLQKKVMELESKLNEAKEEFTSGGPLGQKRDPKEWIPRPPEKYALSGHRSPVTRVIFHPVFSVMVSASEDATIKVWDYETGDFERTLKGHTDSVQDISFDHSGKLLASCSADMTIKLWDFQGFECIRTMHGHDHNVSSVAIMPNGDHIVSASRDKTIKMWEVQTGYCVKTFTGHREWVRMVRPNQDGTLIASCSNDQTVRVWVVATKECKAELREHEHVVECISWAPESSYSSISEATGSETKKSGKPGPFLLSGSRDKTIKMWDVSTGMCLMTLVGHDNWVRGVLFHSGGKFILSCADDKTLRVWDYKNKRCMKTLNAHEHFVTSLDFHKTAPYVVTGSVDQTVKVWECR
UniProt Q92621: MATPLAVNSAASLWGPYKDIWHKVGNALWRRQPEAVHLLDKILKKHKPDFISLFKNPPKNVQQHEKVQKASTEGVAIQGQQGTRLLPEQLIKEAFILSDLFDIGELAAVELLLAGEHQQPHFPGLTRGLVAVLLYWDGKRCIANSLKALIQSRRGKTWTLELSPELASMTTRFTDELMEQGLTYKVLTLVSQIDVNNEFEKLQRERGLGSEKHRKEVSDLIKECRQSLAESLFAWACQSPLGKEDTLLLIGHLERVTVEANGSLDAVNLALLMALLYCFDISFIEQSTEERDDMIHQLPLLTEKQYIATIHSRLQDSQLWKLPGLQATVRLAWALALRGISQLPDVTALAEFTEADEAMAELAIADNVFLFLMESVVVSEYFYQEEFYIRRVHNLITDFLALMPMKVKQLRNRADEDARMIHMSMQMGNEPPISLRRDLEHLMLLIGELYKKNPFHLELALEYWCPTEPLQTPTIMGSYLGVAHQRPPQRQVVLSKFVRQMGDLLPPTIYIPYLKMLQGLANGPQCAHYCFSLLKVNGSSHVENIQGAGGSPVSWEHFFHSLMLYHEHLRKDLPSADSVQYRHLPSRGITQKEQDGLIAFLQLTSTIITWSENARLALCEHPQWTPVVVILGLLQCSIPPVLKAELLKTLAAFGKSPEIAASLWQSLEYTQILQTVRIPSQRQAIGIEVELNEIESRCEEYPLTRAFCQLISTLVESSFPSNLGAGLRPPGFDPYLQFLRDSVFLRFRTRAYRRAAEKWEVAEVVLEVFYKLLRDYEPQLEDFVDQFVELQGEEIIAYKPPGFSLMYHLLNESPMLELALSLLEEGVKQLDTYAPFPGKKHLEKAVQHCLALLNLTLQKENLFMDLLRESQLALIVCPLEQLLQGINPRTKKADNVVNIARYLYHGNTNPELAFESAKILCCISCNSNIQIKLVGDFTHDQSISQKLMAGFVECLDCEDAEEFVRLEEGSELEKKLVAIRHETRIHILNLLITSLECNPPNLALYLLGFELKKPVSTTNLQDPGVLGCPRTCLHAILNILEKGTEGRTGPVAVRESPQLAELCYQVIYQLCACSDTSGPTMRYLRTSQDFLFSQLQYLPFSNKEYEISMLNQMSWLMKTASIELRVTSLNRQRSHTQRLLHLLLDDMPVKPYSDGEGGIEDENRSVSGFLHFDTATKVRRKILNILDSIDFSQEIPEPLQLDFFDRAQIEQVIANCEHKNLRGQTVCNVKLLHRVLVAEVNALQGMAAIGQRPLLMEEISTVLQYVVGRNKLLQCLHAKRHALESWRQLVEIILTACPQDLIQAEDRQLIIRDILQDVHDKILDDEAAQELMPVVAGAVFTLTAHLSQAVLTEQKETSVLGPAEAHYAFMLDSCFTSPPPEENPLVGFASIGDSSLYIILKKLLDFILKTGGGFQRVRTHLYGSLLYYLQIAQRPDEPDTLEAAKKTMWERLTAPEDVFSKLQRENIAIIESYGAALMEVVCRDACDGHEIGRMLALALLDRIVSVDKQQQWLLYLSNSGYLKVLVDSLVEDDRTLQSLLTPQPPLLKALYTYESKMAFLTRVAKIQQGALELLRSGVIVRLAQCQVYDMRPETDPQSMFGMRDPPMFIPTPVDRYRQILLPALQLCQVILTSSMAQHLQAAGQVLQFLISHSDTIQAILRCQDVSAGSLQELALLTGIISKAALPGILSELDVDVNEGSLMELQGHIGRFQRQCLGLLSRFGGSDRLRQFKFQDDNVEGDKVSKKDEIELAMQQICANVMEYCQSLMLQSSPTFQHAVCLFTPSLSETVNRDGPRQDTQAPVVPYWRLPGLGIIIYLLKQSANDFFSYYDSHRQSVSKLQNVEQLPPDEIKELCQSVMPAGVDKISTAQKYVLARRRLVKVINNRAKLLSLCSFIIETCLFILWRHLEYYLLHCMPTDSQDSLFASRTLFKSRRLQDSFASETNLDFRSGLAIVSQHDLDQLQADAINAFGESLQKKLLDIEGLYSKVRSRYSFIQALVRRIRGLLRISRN
UniProt Q9BVL2: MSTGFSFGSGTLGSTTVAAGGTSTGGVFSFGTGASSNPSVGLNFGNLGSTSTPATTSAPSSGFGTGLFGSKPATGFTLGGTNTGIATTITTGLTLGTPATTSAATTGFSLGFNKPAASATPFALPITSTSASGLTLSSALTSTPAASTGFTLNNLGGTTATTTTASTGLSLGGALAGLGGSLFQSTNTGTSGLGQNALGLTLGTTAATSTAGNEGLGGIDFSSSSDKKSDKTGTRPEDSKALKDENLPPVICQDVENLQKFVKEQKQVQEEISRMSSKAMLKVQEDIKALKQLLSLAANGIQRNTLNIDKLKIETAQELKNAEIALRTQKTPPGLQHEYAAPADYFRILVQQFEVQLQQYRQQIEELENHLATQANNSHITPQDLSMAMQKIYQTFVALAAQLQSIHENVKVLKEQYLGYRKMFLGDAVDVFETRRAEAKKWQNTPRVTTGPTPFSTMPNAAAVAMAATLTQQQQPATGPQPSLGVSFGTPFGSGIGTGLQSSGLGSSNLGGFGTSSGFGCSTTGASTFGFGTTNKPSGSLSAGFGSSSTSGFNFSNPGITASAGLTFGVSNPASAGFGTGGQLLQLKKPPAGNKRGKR
UniProt O75459: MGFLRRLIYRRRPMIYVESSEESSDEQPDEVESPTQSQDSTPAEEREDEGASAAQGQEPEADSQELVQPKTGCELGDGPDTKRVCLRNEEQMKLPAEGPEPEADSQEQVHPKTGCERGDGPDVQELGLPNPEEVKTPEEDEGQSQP
UniProt Q9UQ80: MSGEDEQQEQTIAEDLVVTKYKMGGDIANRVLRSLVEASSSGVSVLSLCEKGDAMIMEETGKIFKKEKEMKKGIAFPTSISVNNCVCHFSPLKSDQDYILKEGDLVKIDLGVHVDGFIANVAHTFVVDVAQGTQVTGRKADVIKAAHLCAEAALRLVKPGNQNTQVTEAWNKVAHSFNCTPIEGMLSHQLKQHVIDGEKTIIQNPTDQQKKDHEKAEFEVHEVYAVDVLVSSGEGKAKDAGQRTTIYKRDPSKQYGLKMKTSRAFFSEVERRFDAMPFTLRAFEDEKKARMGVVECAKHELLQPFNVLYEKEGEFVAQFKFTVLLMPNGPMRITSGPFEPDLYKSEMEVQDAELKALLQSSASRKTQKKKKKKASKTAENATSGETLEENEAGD
UniProt P22234: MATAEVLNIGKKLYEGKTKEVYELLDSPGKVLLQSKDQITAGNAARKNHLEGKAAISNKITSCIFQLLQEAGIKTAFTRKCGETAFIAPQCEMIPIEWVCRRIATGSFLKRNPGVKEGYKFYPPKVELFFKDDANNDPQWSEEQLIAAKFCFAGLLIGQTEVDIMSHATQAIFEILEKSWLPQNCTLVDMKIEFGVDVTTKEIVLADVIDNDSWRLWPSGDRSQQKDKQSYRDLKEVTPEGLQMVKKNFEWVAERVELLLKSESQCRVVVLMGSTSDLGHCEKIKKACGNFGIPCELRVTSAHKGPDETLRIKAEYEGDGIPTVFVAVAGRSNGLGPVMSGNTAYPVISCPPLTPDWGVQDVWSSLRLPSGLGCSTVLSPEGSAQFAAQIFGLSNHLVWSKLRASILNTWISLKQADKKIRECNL
UniProt O95340: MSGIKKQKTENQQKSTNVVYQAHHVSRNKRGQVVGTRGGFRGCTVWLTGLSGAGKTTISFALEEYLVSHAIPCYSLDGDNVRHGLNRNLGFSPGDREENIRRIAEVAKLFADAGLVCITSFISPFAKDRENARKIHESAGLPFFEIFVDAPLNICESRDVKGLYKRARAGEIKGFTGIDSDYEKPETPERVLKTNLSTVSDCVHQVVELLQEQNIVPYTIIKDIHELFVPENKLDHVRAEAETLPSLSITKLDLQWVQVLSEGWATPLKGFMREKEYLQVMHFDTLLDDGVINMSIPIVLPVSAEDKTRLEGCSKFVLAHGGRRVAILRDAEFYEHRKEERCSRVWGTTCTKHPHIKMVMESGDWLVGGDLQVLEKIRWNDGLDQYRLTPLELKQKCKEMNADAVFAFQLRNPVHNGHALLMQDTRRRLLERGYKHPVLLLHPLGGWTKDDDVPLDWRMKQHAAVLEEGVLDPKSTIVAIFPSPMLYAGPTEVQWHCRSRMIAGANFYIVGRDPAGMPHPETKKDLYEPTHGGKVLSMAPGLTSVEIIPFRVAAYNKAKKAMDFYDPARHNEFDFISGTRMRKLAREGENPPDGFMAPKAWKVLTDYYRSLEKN
UniProt Q9H999: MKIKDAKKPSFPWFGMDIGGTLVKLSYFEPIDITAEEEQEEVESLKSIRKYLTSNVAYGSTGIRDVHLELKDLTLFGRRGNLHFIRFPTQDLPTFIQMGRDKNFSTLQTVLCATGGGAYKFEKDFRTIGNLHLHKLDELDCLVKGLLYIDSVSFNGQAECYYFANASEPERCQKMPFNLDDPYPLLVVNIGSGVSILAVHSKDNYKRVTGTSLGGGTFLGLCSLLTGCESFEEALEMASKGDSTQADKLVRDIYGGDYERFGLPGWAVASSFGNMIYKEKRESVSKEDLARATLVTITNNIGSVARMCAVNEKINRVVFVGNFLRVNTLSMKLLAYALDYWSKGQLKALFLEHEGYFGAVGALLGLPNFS
UniProt P47900: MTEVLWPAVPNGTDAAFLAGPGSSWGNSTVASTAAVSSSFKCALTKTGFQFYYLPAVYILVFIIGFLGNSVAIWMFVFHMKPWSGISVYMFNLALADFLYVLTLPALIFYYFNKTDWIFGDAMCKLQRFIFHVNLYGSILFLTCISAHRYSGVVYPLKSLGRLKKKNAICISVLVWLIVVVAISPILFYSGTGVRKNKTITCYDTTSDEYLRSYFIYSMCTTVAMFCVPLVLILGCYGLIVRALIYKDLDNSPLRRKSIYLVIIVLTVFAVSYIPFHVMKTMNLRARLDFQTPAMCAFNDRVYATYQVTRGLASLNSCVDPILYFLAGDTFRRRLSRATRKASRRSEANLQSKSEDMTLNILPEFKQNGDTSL

Tests used:
Test in all cases: log2 fold change, soluble protein after heating vs DMSO (PISA); higher = thermal stabilisation; K562 lysate, 10 uM; active = over 0.2 and 3.5 SD of the protein, either way, in both replicates (recomputed)
lapatinib = compound: CS(=O)(=O)CCNCc1ccc(-c2ccc3ncnc(Nc4ccc(OCc5cccc(F)c5)c(Cl)c4)c3c2)o1 [lapatinib]
Method in brief: (§1)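 Soluble protein was defined as the supernatant remaining after 21,000xg for 90 min, following pooling of heated aliquots and adjustment to 0.5% NP-40 at 4°C. Before that, crude K562 extract at 1 mg/mL protein in PBS pH 7.4 with 1 mM MgCl2 was treated with 10 μM compound for 30 min and heated for 3 min across 48°C-58°C. Quantification used TMTpro 16plex LC-MS/MS with channel sums equalised, and values are log-two fold changes in thermal stability relative to solvent controls from duplicates.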

pictilisib = compound: CS(=O)(=O)N1CCN(Cc2cc3nc(-c4cccc5[nH]ncc45)nc(N4CCOCC4)c3s2)CC1 [pictilisib]
Method in brief: as §1

crizotinib = compound: C[C@@H](Oc1cc(-c2cnn(C3CCNCC3)c2)cnc1N)c1c(Cl)ccc(F)c1Cl [crizotinib]
Method in brief: as §1

[1] = compound: C[C@H](C1=CC=C(C=C1)C(=O)NC2=C3C=CNC3=NC=C2)N
Method in brief: as §1

duvelisib = compound: C[C@H](Nc1ncnc2nc[nH]c12)c1cc2cccc(Cl)c2c(=O)n1-c1ccccc1 [duvelisib]
Method in brief: as §1

gandotinib = compound: Cc1cc(Nc2cc(CN3CCOCC3)c3nc(C)c(Cc4ccc(Cl)cc4F)n3n2)n[nH]1 [gandotinib]
Method in brief: as §1

tozasertib = compound: Cc1cc(Nc2cc(N3CCN(C)CC3)nc(Sc3ccc(NC(=O)C4CC4)cc3)n2)n[nH]1 [tozasertib]
Method in brief: as §1

doramapimod = compound: Cc1ccc(-n2nc(C(C)(C)C)cc2NC(=O)Nc2ccc(OCCN3CCOCC3)c3ccccc23)cc1 [doramapimod]
Method in brief: as §1

bafetinib = compound: Cc1ccc(NC(=O)c2ccc(CN3CC[C@H](N(C)C)C3)c(C(F)(F)F)c2)cc1Nc1nccc(-c2cncnc2)n1 [bafetinib]
Method in brief: as §1

[2] = compound: Cc1cccc(CC(=O)N2CCc3c2ccc(-c2cn(C)c4ncnc(N)c24)c3F)n1
Method in brief: as §1

nilotinib = compound: Cc1cn(-c2cc(NC(=O)c3ccc(C)c(Nc4nccc(-c5cccnc5)n4)c3)cc(C(F)(F)F)c2)cn1 [nilotinib]
Method in brief: as §1

[3] = compound: Cc1nc(Nc2n[nH]c3c2CN(C(=O)N[C@H](CN(C)C)c2ccccc2)C3(C)C)c2sccc2n1
Method in brief: as §1

dasatinib = compound: Cc1nc(Nc2ncc(C(=O)Nc3c(C)cccc3Cl)s2)cc(N2CCN(CCO)CC2)n1 [dasatinib]
Method in brief: as §1

[4] = compound: Cc1ncc(-c2ccnc(Nc3ccc(S(C)(=O)=O)cc3)n2)n1C(C)C
Method in brief: as §1

[5] = compound: Cn1cc(-c2ccc3c(c2)CCN3C(=O)Cc2cccc(C(F)(F)F)c2)c2c(N)ncnc21
Method in brief: as §1

quisinostat = compound: Cn1cc(CNCC2CCN(c3ncc(C(=O)NO)cn3)CC2)c2ccccc21 [quisinostat]
Method in brief: as §1

tipifarnib = compound: Cn1cncc1[C@@](N)(c1ccc(Cl)cc1)c1ccc2c(c1)c(-c1cccc(Cl)c1)cc(=O)n2C [tipifarnib]
Method in brief: as §1

[6] = compound: NC(=O)Nc1cc(-c2cccc(F)c2)sc1C(=O)N[C@H]1CCCNC1
Method in brief: as §1

[7] = compound: NC(=O)c1cnc(N[C@@H]2CCCC[C@@H]2N)nc1Nc1cccc(-n2nccn2)c1
Method in brief: as §1

[8] = compound: NC1(c2ccc(-c3nc4ccn5c(=O)[nH]nc5c4cc3-c3ccccc3)cc2)CCC1
Method in brief: as §1

Measured: log2 fold change

NUP54 (UniProt Q7Z3B4)
inactive: lapatinib 0.04 | pictilisib -0.025 | crizotinib 0.003 | [1] -0.131 | duvelisib -0.007 | gandotinib 0.108 | tozasertib 0.023 | doramapimod -0.031 | bafetinib -0.014 | [2] 0.186 | nilotinib 0.03 | [3] -0.016 | dasatinib -0.041 | [4] 0.026 | [5] 0 | quisinostat 0.008 | tipifarnib -0.068 | [6] 0.044 | [7] 0.002 | [8] -0.007

NUP85 (UniProt Q9BW27)
inactive: lapatinib 0 | pictilisib -0.026 | crizotinib 0.001 | [1] -0.052 | duvelisib 0.001 | gandotinib 0.005 | tozasertib 0.02 | doramapimod 0.011 | bafetinib -0.065 | [2] 0.081 | nilotinib -0.003 | [3] -0.02 | dasatinib -0.12 | [4] -0.002 | [5] 0.019 | quisinostat 0.026 | tipifarnib -0.011 | [6] 0 | [7] 0.023 | [8] -0.004

PAFAH1B1 (UniProt P43034)
inactive: lapatinib 0.006 | pictilisib -0.014 | crizotinib 0.067 | [1] 0.072 | duvelisib 0.005 | gandotinib -0.055 | tozasertib -0.002 | doramapimod 0.005 | bafetinib 0.011 | [2] -0.103 | nilotinib 0.005 | [3] 0.033 | dasatinib 0.062 | [4] 0.009 | [5] -0.004 | quisinostat 0.079 | tipifarnib 0.002 | [6] -0.011 | [7] -0.021 | [8] 0.003

NUP205 (UniProt Q92621)
inactive: lapatinib -0.03 | pictilisib -0.041 | crizotinib -0.1 | [1] -0.047 | duvelisib -0.008 | gandotinib -0.143 | tozasertib 0.015 | doramapimod 0.043 | bafetinib -0.089 | [2] 0.031 | nilotinib -0.014 | [3] 0.004 | dasatinib -0.04 | [4] 0.008 | [5] 0.04 | quisinostat -0.041 | tipifarnib -0.027 | [6] 0.052 | [7] 0.047 | [8] -0.012

NUP58 (UniProt Q9BVL2)
inactive: lapatinib 0.046 | pictilisib 0.008 | crizotinib 0.047 | [1] -0.08 | duvelisib 0.024 | gandotinib 0.005 | tozasertib 0.012 | doramapimod -0.02 | bafetinib 0 | [2] 0.036 | nilotinib 0.008 | [3] 0.065 | dasatinib -0.001 | [4] -0.012 | [5] 0.011 | quisinostat -0.007 | tipifarnib -0.068 | [6] 0.029 | [7] -0.008 | [8] -0.003

PAGE1 (UniProt O75459)
inactive: lapatinib 0.068 | pictilisib 0.07 | crizotinib 0.062 | [1] 0.001 | duvelisib 0.083 | gandotinib 0.013 | tozasertib -0.025 | doramapimod -0.041 | bafetinib 0.03 | [2] -0.046 | nilotinib -0.079 | [3] 0.086 | dasatinib 0.049 | [4] 0.003 | [5] -0.071 | quisinostat 0 | tipifarnib -0.015 | [6] -0.018 | [7] -0.028 | [8] 0.001

PA2G4 (UniProt Q9UQ80)
inactive: lapatinib -0.001 | pictilisib 0.019 | crizotinib 0.007 | [1] 0.136 | duvelisib 0.008 | gandotinib -0.035 | tozasertib -0.024 | doramapimod -0.015 | bafetinib 0.005 | [2] -0.03 | nilotinib 0.015 | [3] -0.008 | dasatinib 0.003 | [4] 0.006 | [5] 0.009 | quisinostat 0.028 | tipifarnib 0.002 | [6] 0.009 | [7] -0.006 | [8] 0

PAICS (UniProt P22234)
inactive: lapatinib 0.019 | pictilisib 0.02 | crizotinib 0.022 | [1] -0.037 | duvelisib -0.012 | gandotinib 0.042 | tozasertib -0.006 | doramapimod -0.016 | bafetinib 0.171 | [2] 0.001 | nilotinib -0.006 | [3] -0.006 | dasatinib 0.05 | [4] -0.008 | [5] -0.05 | quisinostat 0.034 | tipifarnib 0.008 | [6] -0.02 | [7] -0.01 | [8] 0.002

PAPSS2 isoform 2 (UniProt O95340)
inactive: lapatinib -0.106 | pictilisib 0.083 | [1] -0.373 | gandotinib 0.167 | tozasertib 0.19 | bafetinib -0.134 | [2] 0.242 | [7] 0.1

OCIAD1 (UniProt D6RF01)
inactive: lapatinib -0.025 | pictilisib -0.175 | bafetinib 0.305 | nilotinib 0.075 | [3] -0.104 | [4] 0.121 | tipifarnib 0.062 | [7] -0.168

PANK3 (UniProt Q9H999)
inactive: lapatinib 0.071 | pictilisib 0.092 | [1] -0.006 | duvelisib -0.29 | gandotinib -0.092 | tozasertib 0.131 | bafetinib -0.144 | [2] 0.039 | nilotinib -0.124 | [3] -0.04 | dasatinib -0.159 | [4] -0.042 | [5] -0.053 | tipifarnib -0.125 | [7] 0.184 | [8] -0.138

PACSIN3 (UniProt Q9UKS6)
inactive: lapatinib -0.016 | pictilisib -0.052 | crizotinib -0.039 | [1] -0.153 | duvelisib -0.012 | gandotinib -0.249 | tozasertib 0.02 | doramapimod -0.014 | bafetinib -0.099 | [2] -0.027 | nilotinib -0.01 | [3] 0.026 | dasatinib 0.027 | [4] -0.006 | [5] 0.041 | quisinostat -0.016 | tipifarnib 0 | [6] 0.032 | [7] 0.013 | [8] 0.049

Reprinted from the entries so far (two entries):
PAPSS2 isoform 2 (UniProt O95340)
inactive: lapatinib -0.106 | pictilisib 0.083 | [1] -0.373 | gandotinib 0.167 | tozasertib 0.19 | bafetinib -0.134 | [2] 0.242 | [7] 0.1

OCIAD1 (UniProt D6RF01)
inactive: lapatinib -0.025 | pictilisib -0.175 | bafetinib 0.305 | nilotinib 0.075 | [3] -0.104 | [4] 0.121 | tipifarnib 0.062 | [7] -0.168

Next entries:

P2RY1 (UniProt P47900)
active: pictilisib -0.444
inactive: lapatinib -0.091 | [1] -0.02 | duvelisib 0.092 | gandotinib 0.012 | tozasertib 0.1 | bafetinib 0.021 | [2] 0.007 | dasatinib 0.012 | [5] -0.027 | [7] -0.182 | [8] 0.004
